This test in a line: qHTS Assay for Modulators of Lamin A Splicing. As to conditions: HeLa LMNA splicing GFP/RFP minigene ratio, 48 h. The gist of the method: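 S3 HeLa stable clones carrying a lamin A-EGFP splicing minigene plus DsRed2 were seeded at 600 cells/well in Opti-MEM with 2% FBS, pin-dosed and incubated 48 h at 37°C. Acumen cytometry (488 nm) gave the GFP/RFP total-intensity ratio.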
(In general: In qHTS, concentration-response curves come from the screen itself.)

Where [1] appears, read: measured here: GFP splicing reporter channel.
[2] abbreviates: measured here: RFP viability control channel.

Where “and” joins values, the source holds several entries; their conditions need not be identical. Equal entries are not always repeated. This is one part of the list. These are further read-outs of the screen, such as a control signal, another cell line or another target. No call is given for them. The list favours compounds with an active or inconclusive main result. The note in brackets gives the kind of curve behind each potency; many fits are weak.

Usually AC50 stands for the midpoint of the concentration-response curve, whichever way the signal moves.

With `CCCOc1ccccc1C1SCC(=O)Nc2c1c(=O)[nH]n2C(C)CCC` (centres undefined), the AC50 under setting [1] is 35.5 µM [rising, single point].
With `CCCCCCCCCCCCCC(=O)O[C@@H]1[C@@H](C)[C@@]2(O)[C@@H](C=C(CO)C[C@@]3(O)C(=O)C(C)=C[C@@H]23)C2C(C)(C)[C@@]21OC(C)=O` (some centres undefined), the AC50 reads like this: under setting [1], 35.5 µM [falling, partial curve, poor fit]; under setting [2], 35.5 µM [falling, partial curve].
Turning to `CN1OC[C@@H]2COc3ccc4ccccc4c3[C@@H]21`, the AC50 under setting [1] is 0.0501 µM [rising, full curve].
For `CCOC(=O)c1ccc(N2CCN(c3ccccc3F)CC2)c(NC(=O)Nc2ccc(Cl)c(Cl)c2)c1`, the concentration at half-maximal activity (AC50) under setting [2] is 5.62 µM [rising, full curve].
The same measure, in the same setting: the value for `C=CCN1C(=O)NC(=O)/C(=C/c2ccc(N(C)C)c(Br)c2)C1=O` was 0.00501 µM [falling, full curve, poor fit].
For `CCn1cc(CN(C)S(=O)(=O)c2ccc3ccccc3c2)c(C)n1`, the AC50 is, setting by setting: under setting [1], 4.47 µM [rising, partial curve, poor fit]; under setting [2], 3.98 µM [rising, full curve].
Regarding `NC(N)=NS(=O)(=O)c1ccc(N)cc1`, the concentration at half-maximal activity (AC50) under setting [2] was 0.0178 µM [rising, full curve, poor fit].
For `CC1OC(O[C@H]2C[C@@H](O)[C@]3(CO)[C@@H]4C(CC[C@]3(O)C2)[C@@]2(O)CC[C@H](C3=CC(=O)OC3)[C@@]2(C)C[C@H]4O)C(O)C(O)C1O` (some centres undefined), the AC50 reads like this: under setting [1], 10 µM [falling, partial curve, poor fit]; under setting [2], 0.0316 µM [rising, full curve, poor fit].
As for `C/C=C1\C[N@@+]2(C)CC[C@@]34C(=C(C=O)[C@H]1C[C@H]32)Nc1ccccc14`, the AC50 under setting [1] was 14.1 µM [falling, single point].
The same measure, in the same setting: the value for `NC(=O)CN1CCCC1=O` was 12.6 µM [falling, single point].
On to `O=[N+]([O-])OC1CO[C@H]2C(O[N+](=O)[O-])COC12` (some centres undefined), for which the AC50 under setting [1] was 0.0282 µM [falling, full curve, poor fit].
For the molecule `OC(Cn1cncn1)(Cn1cncn1)c1ccc(F)cc1F`, the AC50 is, setting by setting: under setting [1], 17.8 µM [falling, single point]; under setting [2], 0.501 µM [falling, single point].
For the molecule `CC(C)NC(C)C`, the AC50 under setting [1] is 17.8 µM [rising, single point].
As for `Cc1cc(OCc2cc(C(=O)O)oc2C)c2c3c(c(=O)oc2c1)CCCC3`, the AC50 under setting [2] was 3.98 µM [rising, full curve, poor fit].
Regarding `CCCCCCCSc1cc(OC)c(CCN(C)C)cc1OC`, the AC50 under setting [1] is 17.8 µM [falling, single point] and the AC50 under setting [2] is 20 µM [falling, partial curve].
For the molecule `O=C(Cc1ccccc1)N1CCN(C/C=C/c2ccccc2)CC1`, the AC50 under setting [2] was 15.8 µM [rising, single point].
In the case of `O=C(Nc1ccc(Cl)cc1)Nc1ccc(Cl)c(Cl)c1`, the AC50 is, setting by setting: under setting [1], 22.4 µM [rising, partial curve, poor fit]; under setting [2], 11.2 µM [rising, partial curve, poor fit].
In the case of `C=CCN1CCC2(C)c3cc(O)ccc3CC1C2C` (centres undefined), the concentration at half-maximal activity (AC50) under setting [2] is 5.62 µM [falling, single point].
As to `CC(=O)NBr`, the AC50 reads like this: under setting [1], 2.82 µM [rising, single point]; under setting [2], 6.31 µM [falling, partial curve, poor fit].
`CC(=O)Oc1c2c(c(CC=C(C)C)c3c1C(=O)C1=CC4CC5C(C)(C)OC(C/C=C(\C)C(=O)O)(C4=O)[C@]15O3)OC(C)(CCC=C(C)C)C=C2` (some centres undefined): the AC50 by setting is: under setting [1], 2.24 µM [falling, full curve]; under setting [2], 1.26 µM [falling, full curve].
As to `C=Cn1ccnc1P(=S)(c1nccn1C=C)c1nccn1C=C`, under setting [2], the AC50 is 0.00891 µM [falling, full curve, poor fit].
The same measure, in the same setting: then `CCCOC(=O)c1ccccc1`, with 0.0355 µM [rising, full curve, poor fit].
For `CC(CCC(=O)O)C1CCC2C3C(=O)C[C@@H]4CC(=O)CC[C@@]4(C)C3CC(=O)[C@]12C` (some centres undefined), the AC50 under setting [1] is 1 µM [falling, full curve, poor fit] and the AC50 under setting [2] is 22.4 µM [falling, single point].
`Cc1cccc(C(=O)Nc2ccc(C(=O)OCc3cc(=O)n4nc(C5CC5)sc4n3)cc2)c1`: the AC50 under setting [2] is 0.891 µM [rising, full curve, poor fit].
As for `COC(=O)C(O)(c1ccc(NC(=S)NC(=O)c2ccccc2)cc1)C(F)(F)F` (centres undefined), the AC50 under setting [1] is 10 µM [rising, partial curve] and the AC50 under setting [2] was 15.8 µM [rising, single point].
Take `Cc1nc2ccccc2c(=O)n1-c1ccccn1`: under setting [1], the AC50 is 14.1 µM [rising, single point].
As to `CCCCn1c(=O)c(C(=O)Nc2ccccc2S(N)(=O)=O)c(O)c2ccccc21`, the AC50 under setting [2] was 35.5 µM [rising, single point].
On to `COc1ccc(CNS(=O)(=O)c2cc3c(cc2C)N(C)CCO3)cc1`, for which the AC50 was 0.00501 µM [falling, full curve, poor fit] under setting [1] and 0.00316 µM [falling, full curve, poor fit] under setting [2].
Turning to `CC(=O)Oc1ccccc1C(=O)Nc1ncc([N+](=O)[O-])s1`, the AC50 under setting [1] is 22.4 µM [rising, single point] and the AC50 under setting [2] is 8.91 µM [rising, partial curve].
Consider `Cc1[nH]ccc2c1[nH]c1cc(=O)ccc12`, for which the AC50 under setting [1] is 0.141 µM [falling, single point]; the AC50 under setting [2] was 63.1 nM [falling, full curve, poor fit] and 7.94 nM [falling, full curve, poor fit].
As for `c1ccc(C2OCCN3CCCCC23)cc1` (centres undefined), the AC50 under setting [1] was 0.00501 µM [falling, full curve].
Consider `Cc1cc2ccccc2c(=O)n1CC(=O)NCC(=O)N1CCC2(CC1)OCCO2`, for which the AC50 under setting [2] was 1.78 µM [falling, partial curve, poor fit].
With `O=C(O)COc1ccccc1`, under setting [1], the AC50 is 7.94 µM [falling, single point].
With `CC(=O)c1cccc(NC(=O)c2cccn(Cc3cccc(C)c3)c2=O)c1`, the AC50 under setting [2] was 8.91 µM [falling, partial curve].
As for `Oc1c(Cl)cc(Cl)cc1CN1CCN(Cc2ccccc2)CC1`, the AC50 by setting is: under setting [1], 35.5 µM [rising, single point]; under setting [2], 35.5 µM [rising, single point].
For the molecule `Nc1c2c(nc3sc4c(c13)CCCCC4)CCCC2`, the AC50 under setting [1] is 15.8 µM [rising, partial curve, poor fit] and the AC50 under setting [2] is 20 µM [rising, partial curve, poor fit].
Consider `O=C1NC(=O)N(c2ccccc2)C(=O)/C1=C/c1ccc([N+](=O)[O-])s1`, for which the AC50 under setting [1] was 25.1 µM [falling, single point].
For the molecule `C=CCn1c(O)c(C(CC)=Nc2ccc(N(CC)CC)cc2)c(=O)[nH]c1=O`, the AC50 was 22.4 µM [rising, single point] under setting [1] and 25.1 µM [rising, single point] under setting [2].
Regarding `S=C(NCCN1CCOCC1)Nc1cccc(Cl)c1`, the AC50 is, setting by setting: under setting [1], 31.6 µM [rising, single point]; under setting [2], 35.5 µM [rising, single point].
On to `CN1C[C@H](C(=O)N[C@]2(C)O[C@]3(O)[C@H]4CCCN4C(=O)[C@H](Cc4ccccc4)N3C2=O)C[C@H]2c3cccc4[nH]cc(c34)C[C@@H]21`, for which the AC50 was 0.00708 µM [falling, full curve] under setting [1] and 0.00631 µM [falling, full curve, poor fit] under setting [2].
With `Cc1c2ccncc2c(C)c2c1[nH]c1ccccc12`, the AC50 under setting [1] was 3.98 µM [falling, partial curve] and 6.31 µM [falling, full curve, poor fit] and 3.98 µM [falling, full curve, poor fit]; the AC50 under setting [2] is 7.94 µM [falling, partial curve] and 10 µM [falling, partial curve] and 11.2 µM [falling, partial curve, poor fit].
For `CCn1nc(C)c(CN2CCCC(C(=O)c3cccc(OC(C)C)c3)C2)c1C` (centres undefined), under setting [2], the AC50 is 2.82 µM [falling, full curve, poor fit].
Same read-out and setting: then `CCOc1ccc(Cn2c(=O)oc3ccc(C)cc32)cc1OC`, with 11.2 µM [rising, partial curve].
With `CCCCN1C2CCC1CC(OC(c1ccc(F)cc1)c1ccc(F)cc1)C2` (centres undefined), the AC50 is, setting by setting: under setting [1], 6.31 µM [falling, full curve, poor fit]; under setting [2], 35.5 µM [falling, single point].
In the case of `Cc1cc(NC(=O)c2noc3c2CCCCC3)no1`, the AC50 under setting [2] was 15.8 µM [rising, single point].
As to `CCCCC1(CCCC)C(=O)NC(=Nc2cccc(C)c2)NC1=O`, the AC50 under setting [1] is 35.5 µM [falling, single point].
`O=c1oc2ccccc2c(O)c1Cc1c(O)c2ccccc2oc1=O`: the AC50 is 0.0355 µM [falling, full curve, poor fit] under setting [1] and 0.0501 µM [falling, full curve, poor fit] under setting [2].
For `CC(C)(C)NC(=S)/N=C(\N)N[N+](=O)[O-]`, under setting [2], the AC50 was 0.00501 µM [falling, full curve, poor fit].
Regarding `Cc1onc(-c2ccccc2)c1C(=O)N1CCC2(CC1)OCCO2`, the AC50 under setting [2] was 0.1 µM [falling, single point].
For `Cc1ccccc1N1C(=O)NC(=O)/C(=C\c2cc(C)n(C)c2C)C1=O`, the AC50 under setting [2] was 15.8 µM [rising, single point].
On to `Cc1ccc(C)c(N2CCN(c3ncnc4onc(C)c34)CC2)c1`, for which the AC50 under setting [1] is 3.55 µM [falling, full curve, poor fit].
Consider `COc1cc([C@H]2c3cc4c(cc3[C@@H](O)[C@@H]3COC(=O)[C@H]23)OCO4)cc(OC)c1OC`, for which the AC50 reads like this: under setting [1], 0.00316 µM [falling, full curve]; under setting [2], 0.00316 µM [falling, full curve].

The values are drawn from PubChem BioAssay AID1487 (National Center for Advancing Translational Sciences (NCATS), 2009).
